In the supplement of paper PMC9454738:
± gives the standard deviation of the averaged measurements. Some of the results follow. Repeats in this data set agree poorly, so a single value says little.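 Test systems: triple-negative MDA-MB-231 breast cancer cells and their brain-metastatic MDA-MB-231BRM derivative, each stably carrying empty vector, full-length GLI1 or truncated tGLI1. Viability after 48 h was read by CellTiter-Blue and expressed against 1% DMSO vehicle. A compound was tGLI1-selective if it lowered viability 20% more in tGLI1 cells than in vector and GLI1 cells.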

Tests used:
Experiment in all cases: cell viability relative to vehicle (DMSO) control (fraction); higher = more viable cells (less growth inhibition)
Details in all cases: treatment time 48 h
MDA-MB-231 GLI1 = test system: MDA-MB-231 GLI1
MDA-MB-231 Vector = test system: MDA-MB-231 Vector
MDA-MB-231 tGLI1 = test system: MDA-MB-231 tGLI1
MDA-MB-231BRM GLI1 = test system: MDA-MB-231BRM GLI1
MDA-MB-231BRM Vector = test system: MDA-MB-231BRM Vector
MDA-MB-231BRM tGLI1 = test system: MDA-MB-231BRM tGLI1

SMILES	cell viability (MDA-MB-231 GLI1; 0.05 µM)	cell viability (MDA-MB-231 GLI1; 0.5 µM)	cell viability (MDA-MB-231 GLI1; 5 µM)	cell viability (MDA-MB-231 Vector; 0.05 µM)	cell viability (MDA-MB-231 Vector; 0.5 µM)	cell viability (MDA-MB-231 Vector; 5 µM)	cell viability (MDA-MB-231 tGLI1; 0.05 µM)	cell viability (MDA-MB-231 tGLI1; 0.5 µM)	cell viability (MDA-MB-231 tGLI1; 5 µM)	cell viability (MDA-MB-231BRM GLI1; 0.05 µM)	cell viability (MDA-MB-231BRM GLI1; 0.5 µM)	cell viability (MDA-MB-231BRM GLI1; 5 µM)	cell viability (MDA-MB-231BRM Vector; 0.05 µM)	cell viability (MDA-MB-231BRM Vector; 0.5 µM)	cell viability (MDA-MB-231BRM Vector; 5 µM)	cell viability (MDA-MB-231BRM tGLI1; 0.05 µM)	cell viability (MDA-MB-231BRM tGLI1; 0.5 µM)	cell viability (MDA-MB-231BRM tGLI1; 5 µM)
Cn1cc(-c2ccc3ncc(Cc4ccc5ncccc5c4)n3n2)cn1	1.2	1.19	0.99	0.872	1.1	0.959	1.11	1.03	0.835	1.03	1	0.847	1.06	1.04	0.833	1.04	1.06	0.74
COc1cc2nccc(Oc3ccc(NC(=O)Nc4cc(C)on4)c(Cl)c3)c2cc1OC [Tivozanib (AV-951)]	1.2	1.15	0.417	0.97	1.14	0.373	1.05	1.08	0.425	1.03	1.08	0.713	1.13	0.914	0.46	0.934	1.07	0.68
CS(=O)(=O)c1ccc(C(=O)Nc2ccc(Cl)c(-c3ccccn3)c2)c(Cl)c1 [Vismodegib (GDC-0449)]	1.31	1.14	1.2	1.33	1.2	1.21	1.14	1.14	1.15	1.03	1.01	0.938	0.981	1.04	0.966	0.993	1.05	1.01
CS(=O)(=O)CCNCc1ccc(-c2ccc3ncnc(Nc4ccc(OCc5cccc(F)c5)c(Cl)c4)c3c2)o1 [Lapatinib Ditosylate (Tykerb)]	1.07	1.08	1.11	1.12	1.15	1.27	0.951	1.15	1.01	0.958	0.949	0.654	0.984	0.895	0.757	0.919	0.967	0.744
Cc1cc(C(C)Nc2ccccc2)c2nc(N3CCOCC3)cc(=O)n2c1 (stereo not drawn)	0.944	1.28	0.898	0.647	0.975	0.772	1.02	1.12	0.545	0.983	0.932	0.939	0.924	0.904	0.933	0.969	0.941	1.05
Cc1cc(Nc2cc(N3CCN(C)CC3)nc(/C=C/c3ccccc3)n2)n[nH]1	1.29	0.949	0.386	0.604	0.742	0.362	1.18	0.773	0.379	1.05	0.969	0.819	1.03	0.895	0.857	1.02	0.857	0.719
Cc1ccc(NC(=O)c2ccc(CN3CCN(C)CC3)cc2)cc1Nc1nccc(-c2cccnc2)n1 [Imatinib (STI571)]	1.29	1.38	1.11	1.33	1.58	1.69	1.38	1.4	1.03	0.963	1	0.757	1.05	0.984	0.866	1.02	0.998	0.78
CCc1cncnc1N1CCN(Cc2nc3ccc(C(F)(F)F)cc3[nH]2)CC1	1.39	1.44	1.79	0.891	1.38	1.42	1.14	1.42	1.41	1.08	1.15	0.928	1.1	1.05	0.972	0.925	1.09	0.858
CCN(CC)CCNC(=O)c1c(C)[nH]c(/C=C2\C(=O)Nc3ccc(F)cc32)c1C [Sunitinib Malate]	1.31	1.2	-0.0645	0.702	1.01	0.0615	1	1.08	0.179	1.15	0.848	0.96	0.882	0.806	1.06	0.957	0.822	0.879
Cc1ccc(-c2cc(C(F)(F)F)nn2-c2ccc(S(N)(=O)=O)cc2)cc1 [Celecoxib]	1.02	1.13	1.02	1.54	1.03	0.92	1.14	1.07	1.1	1.05	1.05	0.884	1.07	0.956	0.898	1.04	1.01	0.982
COc1cc2c(Oc3ccc4[nH]c(C)cc4c3F)ncnc2cc1OCCCN1CCCC1 [Cediranib (AZD2171)]	1.04	1.41	0.155	0.876	0.863	0.225	0.77	1.09	0.465	0.943	0.919	0.886	0.854	0.878	0.816	0.978	0.877	0.794
Oc1ccc(Nc2nc(-c3ccc(Cl)cc3)cs2)cc1	1.47	1.67	0.494	1.37	1.53	0.842	1.43	1.43	0.835	1.03	0.988	0.677	1.19	1.05	0.704	1.01	1.01	0.621
CN1CCN(c2ccc3nc(-c4c(N)c5c(F)cccc5[nH]c4=O)[nH]c3c2)CC1 [Dovitinib (TKI-258, CHIR-258)]	1.41	1.79	0.502	1.58	1.3	0.434	1.06	1.51	0.426	0.86	0.828	0.582	0.874	0.779	0.661	0.916	0.882	0.501
CCS(=O)(=O)c1cccc(-c2cc(C(=O)NC3CCN(C)CC3)c(C)c3[nH]c4ncc(C)cc4c23)c1	0.615	0.377	0.0425	0.699	0.51	0.215	0.719	0.489	0.115	1.03	1	0.986	1.04	1.06	0.969	1.04	1.02	0.883
O=c1[nH]cc(F)c(=O)[nH]1 [Adrucil (Fluorouracil)]	1.19	1.02	0.877	1.45	1.19	0.708	0.83	1.15	0.832	1.06	1.04	0.994	1.1	1.02	1.05	1.07	1.04	1.07
Cc1cc(Nc2cc(N3CCN(C)CC3)nc(Sc3ccc(NC(=O)C4CC4)cc3)n2)n[nH]1 [VX-680 (Tozasertib, MK-0457)]	0.609	1.36	0.78	1.09	0.919	0.587	0.98	1.04	0.374	0.913	0.954	0.963	0.951	0.902	0.974	0.88	0.95	0.891
CN(c1ccccc1CNc1nc(Nc2ccc3c(c2)CC(=O)N3)ncc1C(F)(F)F)S(C)(=O)=O	2.27	2.73	0.435	1.39	1.21	0.16	1.4	1.18	0.205	0.691	0.651	0.677	0.895	0.771	0.629	1.18	1.02	0.989
O=c1c(-c2ccc(O)cc2)coc2cc(O)cc(O)c12 [Genistein]	1.03 ± 0.07	0.972 ± 0.081	1.08 ± 0.24	1.14 ± 0.46	0.986 ± 0.015	0.977 ± 0.052	1.03 ± 0.089	1.12 ± 0.052	1.02 ± 0.048	1.06 ± 0.083	1.02 ± 0.075	0.909 ± 0.14	0.882 ± 0.21	0.978 ± 0.017	0.77 ± 0.4	1.04 ± 0.038	1.02 ± 0.16	0.893 ± 0.15
c1cc(-c2cnn3cc(-c4ccc(OCCN5CCCCC5)cc4)cnc23)ccn1 [Dorsomorphin (Compound C)]	2.4	2.93	1.21	1.5	1.29	0.629	1.39	1.5	0.765	0.827	0.723	0.629	0.912	0.738	0.691	1.2	0.549	1
CNC(=O)c1cc(COc2nnc(Nc3ccc(Cl)cc3)c3ccoc23)ccn1 [Telatinib]	0.828	1.01	0.816	0.948	1.31	0.748	1.14	1.05	0.672	0.989	0.928	1.09	1.07	1.02	1.16	1.07	1.03	1.03
C=CC(=O)Nc1cc(Nc2nccc(-c3cn(C)c4ccccc34)n2)c(OC)cc1N(C)CCN(C)C	1.17	1.18	-0.0524	0.864	0.684	-0.00378	1.18	0.985	0.055	0.983	0.793	0.572	0.984	0.832	0.586	1	0.803	0.514
Cc1nc(NC(=O)N2CCC[C@H]2C(N)=O)sc1-c1ccnc(C(C)(C)C(F)(F)F)c1	1.06	0.76	0.845	0.997	0.887	0.656	1.11	0.881	0.699	1.07	1.06	0.805	1.03	1.06	0.548	1.04	1.05	0.602
COc1cc2ncnc(Oc3cccc(NC(=O)Nc4cc(C(C)(C)C(F)(F)F)on4)c3)c2cc1OC	1.93	1.89	0.794	1.07	0.896	0.467	1.18	0.939	0.5	0.81	0.779	0.699	0.95	0.781	0.749	1.19	1.14	1.12
Cc1ccc(-n2nc(C(C)(C)C)cc2NC(=O)Nc2ccc(OCCN3CCOCC3)c3ccccc23)cc1 [BIRB 796 (Doramapimod)]	1.34	1.35	1.55	1.89	1.28	1.16	1.19	1.31	1.4	1.1	1.12	0.874	1.21	0.999	0.926	0.598	1.09	0.89
CC(=O)Nc1cccc(-n2c(=O)n(C3CC3)c(=O)c3c(Nc4ccc(I)cc4F)n(C)c(=O)c(C)c32)c1	0.655	0.75	0.64	0.588	0.58	0.692	0.703	0.591	0.55	1.07	1.13	0.959	1.12	1.14	0.885	1.12	0.983	0.777
COc1cccc2cc(-c3nc([C@H]4CC[C@H](C(=O)O)CC4)n4ncnc(N)c34)[nH]c12	1.11	0.77	0.278	0.902	0.447	0.309	1.03	0.726	0.234	1.04	0.985	0.732	1.04	1.02	0.726	1.03	1.01	0.887

Quoted from the results shown, 2 compounds:
SMILES	cell viability (MDA-MB-231 GLI1; 0.05 µM)	cell viability (MDA-MB-231 GLI1; 0.5 µM)	cell viability (MDA-MB-231 GLI1; 5 µM)	cell viability (MDA-MB-231 Vector; 0.05 µM)	cell viability (MDA-MB-231 Vector; 0.5 µM)	cell viability (MDA-MB-231 Vector; 5 µM)	cell viability (MDA-MB-231 tGLI1; 0.05 µM)	cell viability (MDA-MB-231 tGLI1; 0.5 µM)	cell viability (MDA-MB-231 tGLI1; 5 µM)	cell viability (MDA-MB-231BRM GLI1; 0.05 µM)	cell viability (MDA-MB-231BRM GLI1; 0.5 µM)	cell viability (MDA-MB-231BRM GLI1; 5 µM)	cell viability (MDA-MB-231BRM Vector; 0.05 µM)	cell viability (MDA-MB-231BRM Vector; 0.5 µM)	cell viability (MDA-MB-231BRM Vector; 5 µM)	cell viability (MDA-MB-231BRM tGLI1; 0.05 µM)	cell viability (MDA-MB-231BRM tGLI1; 0.5 µM)	cell viability (MDA-MB-231BRM tGLI1; 5 µM)
CN(c1ccccc1CNc1nc(Nc2ccc3c(c2)CC(=O)N3)ncc1C(F)(F)F)S(C)(=O)=O	2.27	2.73	0.435	1.39	1.21	0.16	1.4	1.18	0.205	0.691	0.651	0.677	0.895	0.771	0.629	1.18	1.02	0.989
O=c1c(-c2ccc(O)cc2)coc2cc(O)cc(O)c12 [Genistein]	1.03 ± 0.07	0.972 ± 0.081	1.08 ± 0.24	1.14 ± 0.46	0.986 ± 0.015	0.977 ± 0.052	1.03 ± 0.089	1.12 ± 0.052	1.02 ± 0.048	1.06 ± 0.083	1.02 ± 0.075	0.909 ± 0.14	0.882 ± 0.21	0.978 ± 0.017	0.77 ± 0.4	1.04 ± 0.038	1.02 ± 0.16	0.893 ± 0.15
